Measured values taken from paper PMC5520747.
These are yes or no findings as the source states them, for the method shown. In cells and extracts the contact can be indirect. A result given as binding can be weak or reduced; the word gives no strength.

The chains behind the UniProt entries cited, without tags or fusion partners. Where a name states a change or a piece, a line headed by the entry shows the natural chain unless it says otherwise.
UniProt Q03135: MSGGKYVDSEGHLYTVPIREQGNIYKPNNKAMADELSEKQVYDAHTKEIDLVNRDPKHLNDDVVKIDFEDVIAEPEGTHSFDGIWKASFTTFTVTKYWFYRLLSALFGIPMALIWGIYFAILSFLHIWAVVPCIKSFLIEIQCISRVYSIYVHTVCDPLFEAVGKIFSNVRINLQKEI
UniProt Q14457: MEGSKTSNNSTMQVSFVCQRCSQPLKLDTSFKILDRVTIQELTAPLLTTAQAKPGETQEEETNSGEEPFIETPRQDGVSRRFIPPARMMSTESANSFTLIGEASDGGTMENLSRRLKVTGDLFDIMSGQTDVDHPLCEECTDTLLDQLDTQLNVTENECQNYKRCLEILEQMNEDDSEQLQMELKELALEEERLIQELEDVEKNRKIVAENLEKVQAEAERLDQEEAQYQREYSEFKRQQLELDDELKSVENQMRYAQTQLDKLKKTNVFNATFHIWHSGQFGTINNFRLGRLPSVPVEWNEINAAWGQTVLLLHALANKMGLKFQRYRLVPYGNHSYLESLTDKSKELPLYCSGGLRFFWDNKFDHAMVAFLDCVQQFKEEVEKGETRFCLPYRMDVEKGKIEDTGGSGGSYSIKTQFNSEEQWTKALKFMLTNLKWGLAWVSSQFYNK

Target: HA-tagged CAV1 (Caveolin1), full length (UniProt Q03135)
Assay: co-IP; HEK293T transfected 24 h; IP with anti-HA antibody (CAV1-HA variant as bait), western blot; lysis in modified RIPA (10 mM Tris-HCl, 150 mM NaCl, 5 mM EDTA, 1 mM Na3VO4, 1% CHAPS); cells untreated or treated with 1 mM H2O2 up to 30 min

BECN1ΔCCD-Flag (from UniProt Q14457)
binding: binds
